The target in assay [1] is T1, p13^Suc1 (S. pombe Cks1 homolog) (S. pombe) (UniProt P08463).
T1 sequence: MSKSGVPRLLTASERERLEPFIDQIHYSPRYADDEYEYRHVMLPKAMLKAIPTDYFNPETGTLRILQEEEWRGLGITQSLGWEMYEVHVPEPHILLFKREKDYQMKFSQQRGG
Kind of assay: pull-down; 1 mg yeast protein extract incubated overnight at 4°C with 50 μl p13^Suc1 Sepharose bead slurry; extract buffer 50 mM Tris pH 7.6, 10% glycerol, 0.5% NP-40, 2 mM EDTA, 250 mM NaCl; beads washed five times; blot with anti-PSTAIRE; extracts of wild-type or cdc28-E217V cells at 30°C, and of swe1 or mih1 deletion strains; only the target purified.

Chains of the proteins cited; added tags and fusions are not shown. Lines headed by an entry give the natural chain unless they say otherwise; changes in a name come on top.
UniProt P00546: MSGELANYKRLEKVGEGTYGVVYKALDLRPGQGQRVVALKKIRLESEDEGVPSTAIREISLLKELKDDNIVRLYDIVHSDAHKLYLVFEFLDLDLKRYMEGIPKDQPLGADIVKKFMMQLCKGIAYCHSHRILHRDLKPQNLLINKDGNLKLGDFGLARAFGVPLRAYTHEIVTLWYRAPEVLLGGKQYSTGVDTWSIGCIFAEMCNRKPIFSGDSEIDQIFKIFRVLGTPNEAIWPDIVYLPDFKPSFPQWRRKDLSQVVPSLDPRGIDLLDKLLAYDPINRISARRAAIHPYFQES

Assay [2] addresses T2, GST-Swe1 (yeast) (UniProt P32944).
T2 sequence: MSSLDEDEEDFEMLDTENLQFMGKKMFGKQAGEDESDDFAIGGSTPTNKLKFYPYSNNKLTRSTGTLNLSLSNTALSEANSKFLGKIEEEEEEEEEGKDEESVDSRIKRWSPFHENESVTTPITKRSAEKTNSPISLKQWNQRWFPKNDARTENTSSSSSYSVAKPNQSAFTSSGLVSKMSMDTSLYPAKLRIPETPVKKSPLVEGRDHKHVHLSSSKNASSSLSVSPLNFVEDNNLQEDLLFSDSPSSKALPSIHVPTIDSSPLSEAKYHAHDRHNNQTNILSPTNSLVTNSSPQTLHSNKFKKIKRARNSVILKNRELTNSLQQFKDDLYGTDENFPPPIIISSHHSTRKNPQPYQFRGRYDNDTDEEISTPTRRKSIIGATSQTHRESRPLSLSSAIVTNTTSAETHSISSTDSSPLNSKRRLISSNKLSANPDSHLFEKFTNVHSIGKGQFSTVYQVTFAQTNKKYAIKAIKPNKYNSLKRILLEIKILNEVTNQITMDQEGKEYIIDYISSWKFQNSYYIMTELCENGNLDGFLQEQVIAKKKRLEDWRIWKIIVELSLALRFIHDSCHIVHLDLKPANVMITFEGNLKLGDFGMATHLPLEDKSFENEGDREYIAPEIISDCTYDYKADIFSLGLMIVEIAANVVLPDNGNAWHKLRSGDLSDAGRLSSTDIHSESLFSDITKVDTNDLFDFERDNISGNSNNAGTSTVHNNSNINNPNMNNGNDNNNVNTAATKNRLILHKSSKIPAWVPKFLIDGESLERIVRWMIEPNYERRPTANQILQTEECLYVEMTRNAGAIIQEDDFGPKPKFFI
Kind of assay: pull-down; GST-Swe1 coated glutathione beads (100 μl of 50% slurry) incubated overnight with 1 mg yeast extract, washed as for p13^Suc1 beads; extracts of wild-type or cdc28-E217V cells, with or without high copy CKS1; only the target purified.

Results are given in words; binding and its absence hold for the method and conditions named. Binding seen in cells or lysates may run through a third protein. Some entries that bind do so weakly or less than the wild type. For some assays here: Sequences can lack the tags named with a protein.

For “Cdc28 (wild type) (from UniProt P00546 1-298)”, the binding entry in assay [1] and in assay [2] was “binds” in each case.

For the substance Cdc28-E217V (from UniProt P00546 1-298), the binding result in assay [1] and in assay [2] was “binds” each time. Regarding “Tyr19-phosphorylated Cdc28 (from UniProt P00546 1-298)”, the binding result in assay [1] was “binds”.

For the origin of these results see article PMC2714844.
